Data: PubChem BioAssay AID2685 (National Center for Advancing Translational Sciences (NCATS), 2010)
Hit rate of the full screen: of about 320,000 compounds, about 2,100 (0.66%) were called active. The shares of active, inactive and inconclusive entries below differ from those in the screen. The call rests on the fitted dose curve; in most records, active means well fitted inhibition curve with a large enough effect in the signal ratio, with a control signal flat (not every such curve was filed as active); inconclusive means small, poorly fitted or top-dose-only effect, or effect the other way, or a change in a side signal; inactive means flat fitted curve, though single readings scatter; the % refers to the signal ratio. Potencies beside an inconclusive call are fits to weak or partial responses and may not hold up.

Experiment: qHTS Assay for Lipid Storage Modulators in Drosophila S3 Cells
Conditions: BODIPY lipid droplet fluorescence, 18-24 h, cells fed with added oleic acid; lipid storage change, negative = inhibition: at 46.1 µM (top of the series) unless noted
Method in brief: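 Drosophila S3 cells got compounds at several concentrations plus oleic acid (400 uM solution). Laser-scanning cytometry with 488 nm excitation read lipid droplets at 500-530 nm and cells at 575-640 nm. Percent activity was relative to 20 uM Triacsin C.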
On the % scale 0 is the no-effect control and ±100 the full control effect; potency means the concentration at half of the fitted maximal effect.

Structure (SMILES) | lipid storage change, negative = inhibition | Potency
COc1cc(/C=N/n2cnn(Cc3ccccc3Cl)c2=S)cc(OC)c1OC | inconclusive: 17.3% | 
Cc1cccc(C(=O)N/N=C/c2ccc(OC3CSC3)cc2)c1 | inconclusive: 17.6% | 
Cc1cccc(OCCCN2CCOCC2)c1 | inconclusive: -13.9% | 
Cc1nc2ccccc2c(=O)n1NC(=O)C1CC1 | inconclusive: 0.758% | 
COC(=O)c1c(NC(=O)C2CCC2)sc(C(=O)N(C)C)c1C |  | inconclusive: 3.66 µM [rising, full curve]
O=C(NCc1ccco1)C1CCN(c2nc3ccccc3n2Cc2ccc(F)cc2)CC1 | inconclusive: 0.251% | 
COC(=O)c1coc(-c2ccc(OC)cc2)c1C(=O)OC |  | inconclusive: 5.17 µM [falling, partial curve]
CC(=O)OCC(=O)Nc1ccc([N+](=O)[O-])cc1Cl | inconclusive: -12.7% | 
COc1cc2c(cc1OC)C(CC#N)=NC(C)(C)C2 |  | inconclusive: 2.91 µM [rising, partial curve]
Cc1ccccc1N=C(NOCc1ccccc1)c1nonc1N | inconclusive: -29.5% | 
CCN(c1ccccc1)S(=O)(=O)c1ccc(OC)c(N=N/C(C(=O)Nc2ccccc2)=C(/C)O)c1 |  | inconclusive: 9.2 µM [cytotoxic, partial curve, poor fit]
Cc1cc(C)cc(N(CCC(=O)Nc2nnc(C)s2)S(=O)(=O)c2ccc(Cl)cc2)c1 | inactive: 13.3% | 
CCOC(=O)c1c(NC(=O)CSc2nnc(-c3cccnc3)o2)sc(C(C)=O)c1C | inconclusive: 21.2% | 
COc1nc(-c2ccccc2)ccc1-c1noc(-c2ccco2)n1 |  | inconclusive: 23.1 µM [activator, single point]
Cc1ccccc1OCC(=O)NCC1CCCO1 (centres undefined) |  | inconclusive: 29.1 µM [rising, single point]
CC(Sc1nc(N)c2c3c(sc2n1)CSC(C)(C)C3)C(=O)Nc1ccccc1 (centres undefined) | inconclusive: -47.6% | 
COc1ccc(S(=O)(=O)N(CC(=O)NCc2ccco2)c2ccccc2OC)cc1 | inconclusive: 11.8% | 
CCn1nc(C)cc1C(=O)OCC(=O)c1ccc(Cl)cc1 | inconclusive: 27.1% | 
Cc1ccccc1C(=O)Oc1cc(N)n(S(=O)(=O)c2ccccc2)n1 |  | inconclusive: 29.1 µM [falling, single point]
O=C(O)c1ccccc1C(=O)c1ccc(Oc2ccccc2)cc1 | inconclusive: -11.2% | 
CCN(CC)C(=O)CSc1nc2ccc(NC(=O)CSc3nnc(COc4ccccc4C)n3C)cc2s1 | inconclusive: -7.87% | 
O=C1C=CC(=O)N1Cc1ccccc1 |  | active: 4.11 µM
CC1CCN(c2nc(-c3ccco3)c3c(c2C#N)CC(C)(C)OC3)CC1 | inconclusive: 45.3% | 
Clc1ccc(NCn2cncn2)nc1 | inconclusive: -17.5% | 
O=C(NCCCc1ccccc1)C1CCC(CNc2c(N3CCCCC3)c(=O)c2=O)CC1 (centres undefined) | inconclusive: 37.8% | 

Structure (SMILES) | lipid storage change, negative = inhibition | Potency
CCOC(=O)c1sc(NC(=O)CCN2C(=O)C3CCCCC3C2=O)cc1C (centres undefined) |  | inconclusive: 18.4 µM [falling, single point]
CC(=O)c1cn(CC(=O)NCC2CCCO2)c2ccccc12 (centres undefined) | inactive: 18% | 
Cc1ccc(-c2nc(CS(=O)CC(=O)N3CCN(c4ncccn4)CC3)c(C)o2)cc1 (centres undefined) |  | inconclusive: 0.0065 µM [falling, full curve, poor fit]
CCCN1CCN(c2ccc([N+](=O)[O-])cc2C#N)CC1 |  | inconclusive: 0.0052 µM [cytotoxic, full curve, poor fit]
COc1ccc(OC)c(COC(=O)c2cc([N+](=O)[O-])ccc2N2CCOCC2)c1 |  | inconclusive: 23.1 µM [falling, single point]
COc1ccc(C(=O)Nn2c(SCC(=O)c3ccccc3)nc3ccccc3c2=O)cc1 | inconclusive: -0.021% | 
Cc1nc2ncnn2c(N2CCC(C(=O)NC3CCCC3)CC2)c1Cc1ccccc1 |  | inconclusive: 0.461 µM [rising, single point]
Cc1ccc(NC(=O)COC(=O)CCc2ccccc2)c(Cl)c1 | inconclusive: 30% | 
COc1ccc(-n2c(C)cc(C(=O)Cn3nc(C(=O)O)c4ccccc4c3=O)c2C)cc1 | inconclusive: -99.8% | 
CCOc1cc(S(=O)(=O)N2CCN(S(=O)(=O)CC)CC2)c(OCC)cc1-n1cnnn1 |  | inconclusive: 2.31 µM [activator, full curve]
CC(NC(=O)C1CC2CCCC(C1)C2=O)c1ccccc1 (centres undefined) | inconclusive: -14.1% | 
COc1ccc(CN2CCN(Cc3ccccc3F)CC2)cc1OC | inconclusive: 11.9% | 
Cc1cc(C)cc(C(=O)Nc2cc3c4c(c2)CC(=O)N4CCC3)c1 | inactive: -15.8% [at 0.0737 µM] | 
CCC(=O)c1ccc(OCC(=O)OCC(=O)NC2CCCC2)cc1 | inactive: 7.81% [at 0.0737 µM] | 
Cc1cc(C)c2nc(-c3cccnc3)cc(C(=O)Nc3ccc(S(=O)(=O)Nc4onc(C)c4C)cc3)c2c1 | inconclusive: 18.8% | 
O=C(OCc1nnc(-c2ccccc2)o1)C12CC3CC(CC(Br)(C3)C1)C2 | inconclusive: 15% | 
COc1ccc(C(=O)NC2CCN(CC(=O)NC3CCCCC3)CC2)cc1 |  | inconclusive: 18.4 µM [activator, single point]
COc1ccc(OC)c(NC(=O)C(CC(C)C)NC(=O)C2CCCCC2)c1 (centres undefined) |  | inconclusive: 18.4 µM [falling, partial curve, poor fit]
COc1ccc(-n2nnnc2SCC(=O)c2cc3ccccc3o2)cc1 | inconclusive: 25.1% | 
O=C(Nc1cccc(-c2cn3ccccc3n2)c1)c1cc2ccccc2oc1=O | inconclusive: -19.9% | 
COc1ccccc1NC(=O)CSc1n[nH]c(Cc2ccccc2)n1 |  | inconclusive: 29.1 µM [activator, partial curve]
CCC(=O)Nc1ccc(Cl)c(NC(=O)c2ccccc2OC)c1 | inconclusive: 26.4% | 
COc1ccc(C(=O)NCC(=O)OCC(=O)Nc2ccc(C)c(S(=O)(=O)N(C)C)c2)cc1OC | inconclusive: -3.8% | 
O=C(CCN1C(=O)/C(=C\c2ccccc2Cl)SC1=S)Nc1cccnc1 | inconclusive: -21.6% | 

Given with tabs: 10 of the compounds above
Structure (SMILES)	lipid storage change, negative = inhibition	Potency
Cc1ccc(-c2nc(CS(=O)CC(=O)N3CCN(c4ncccn4)CC3)c(C)o2)cc1 (centres undefined)		inconclusive: 0.0065 µM [falling, full curve, poor fit]
CCCN1CCN(c2ccc([N+](=O)[O-])cc2C#N)CC1		inconclusive: 0.0052 µM [cytotoxic, full curve, poor fit]
COc1ccc(C(=O)Nn2c(SCC(=O)c3ccccc3)nc3ccccc3c2=O)cc1	inconclusive: -0.021%	
Cc1nc2ncnn2c(N2CCC(C(=O)NC3CCCC3)CC2)c1Cc1ccccc1		inconclusive: 0.461 µM [rising, single point]
Cc1ccc(NC(=O)COC(=O)CCc2ccccc2)c(Cl)c1	inconclusive: 30%	
Cc1cc(C)cc(C(=O)Nc2cc3c4c(c2)CC(=O)N4CCC3)c1	inactive: -15.8% [at 0.0737 µM]	
O=C(OCc1nnc(-c2ccccc2)o1)C12CC3CC(CC(Br)(C3)C1)C2	inconclusive: 15%	
COc1ccc(-n2nnnc2SCC(=O)c2cc3ccccc3o2)cc1	inconclusive: 25.1%	
O=C(Nc1cccc(-c2cn3ccccc3n2)c1)c1cc2ccccc2oc1=O	inconclusive: -19.9%	
COc1ccc(C(=O)NCC(=O)OCC(=O)Nc2ccc(C)c(S(=O)(=O)N(C)C)c2)cc1OC	inconclusive: -3.8%	
